Reference: publication PMC12827997
Results are given in words; binding and its absence hold for the method and conditions named. Binding seen in cells or lysates may run through a third protein. Some results given as binding are weak or reduced against the parent protein; the word gives no strength.

Protein sequences, listed by entry. Tags and fused reporters are not part of them. Residues count along the entry.
UniProt O00206, residues 24-839: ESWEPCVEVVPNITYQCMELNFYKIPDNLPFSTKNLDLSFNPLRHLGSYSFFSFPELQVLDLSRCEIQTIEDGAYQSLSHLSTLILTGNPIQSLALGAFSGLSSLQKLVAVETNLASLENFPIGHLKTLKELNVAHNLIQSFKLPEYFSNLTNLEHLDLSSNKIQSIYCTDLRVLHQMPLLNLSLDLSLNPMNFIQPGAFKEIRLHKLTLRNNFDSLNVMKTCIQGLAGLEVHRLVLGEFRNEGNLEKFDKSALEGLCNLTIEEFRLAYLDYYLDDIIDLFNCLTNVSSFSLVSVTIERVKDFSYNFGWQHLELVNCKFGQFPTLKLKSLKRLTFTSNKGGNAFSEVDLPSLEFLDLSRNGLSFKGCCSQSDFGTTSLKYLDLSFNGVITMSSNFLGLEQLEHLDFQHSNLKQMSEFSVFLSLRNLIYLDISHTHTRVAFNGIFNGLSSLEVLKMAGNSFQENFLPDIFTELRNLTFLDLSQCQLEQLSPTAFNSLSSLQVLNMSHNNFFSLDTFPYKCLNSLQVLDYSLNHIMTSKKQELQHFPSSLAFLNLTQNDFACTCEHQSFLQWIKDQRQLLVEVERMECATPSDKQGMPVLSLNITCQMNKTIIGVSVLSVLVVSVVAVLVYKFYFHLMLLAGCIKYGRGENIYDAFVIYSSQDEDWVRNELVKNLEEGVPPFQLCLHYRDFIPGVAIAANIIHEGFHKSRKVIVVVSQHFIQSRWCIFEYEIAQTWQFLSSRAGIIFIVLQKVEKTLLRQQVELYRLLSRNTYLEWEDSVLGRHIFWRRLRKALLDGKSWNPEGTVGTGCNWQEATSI
UniProt P06733: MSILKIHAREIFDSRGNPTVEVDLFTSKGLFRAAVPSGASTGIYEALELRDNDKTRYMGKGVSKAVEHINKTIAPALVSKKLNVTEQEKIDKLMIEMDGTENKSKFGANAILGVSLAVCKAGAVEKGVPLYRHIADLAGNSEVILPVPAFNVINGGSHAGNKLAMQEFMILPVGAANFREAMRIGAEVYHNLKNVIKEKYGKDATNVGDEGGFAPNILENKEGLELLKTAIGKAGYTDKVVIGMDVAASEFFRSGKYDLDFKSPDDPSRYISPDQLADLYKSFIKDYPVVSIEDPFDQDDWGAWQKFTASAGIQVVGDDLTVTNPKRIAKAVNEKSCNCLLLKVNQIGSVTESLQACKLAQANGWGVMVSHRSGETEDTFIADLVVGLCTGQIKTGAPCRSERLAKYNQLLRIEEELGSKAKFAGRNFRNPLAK
UniProt O75396: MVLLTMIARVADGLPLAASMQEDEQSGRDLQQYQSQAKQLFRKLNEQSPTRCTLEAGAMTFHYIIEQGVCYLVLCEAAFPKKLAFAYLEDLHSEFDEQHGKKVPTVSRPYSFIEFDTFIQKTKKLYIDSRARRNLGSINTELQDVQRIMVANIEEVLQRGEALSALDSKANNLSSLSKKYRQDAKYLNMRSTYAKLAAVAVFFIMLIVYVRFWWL

What was measured:
[1] = target: Toll-like receptor 4 (TLR4) (human (endogenous in GBM cell lines)) (UniProt O00206); experiment: co-IP; endogenous proteins in GBM cell lysates (IP lysis/wash buffer with protease and phosphatase inhibitors); target-specific antibody on Protein A/G magnetic beads, overnight at 4 °C; Western blot; cells untreated, shENO1, or treated with rhENO1 (1 μg/mL)
[2] = target: Alpha-enolase (ENO1) (human (endogenous in GBM cell lines)) (UniProt P06733); experiment: as above

binding [1]	binding [2]	Substance
binds		Alpha-enolase (ENO1) (from UniProt P06733 1-434)
	binds	SEC22B (from UniProt O75396 1-215)
	binds	Toll-like receptor 4 (TLR4) (from UniProt O00206 24-839)
